# According to the supplement of paper PMC10849652:
# Chains of the proteins cited; added tags and fusions are not shown. Lines headed by an entry give the natural chain unless they say otherwise; changes in a name come on top.
# UniProt O95067, whole entry, looked up: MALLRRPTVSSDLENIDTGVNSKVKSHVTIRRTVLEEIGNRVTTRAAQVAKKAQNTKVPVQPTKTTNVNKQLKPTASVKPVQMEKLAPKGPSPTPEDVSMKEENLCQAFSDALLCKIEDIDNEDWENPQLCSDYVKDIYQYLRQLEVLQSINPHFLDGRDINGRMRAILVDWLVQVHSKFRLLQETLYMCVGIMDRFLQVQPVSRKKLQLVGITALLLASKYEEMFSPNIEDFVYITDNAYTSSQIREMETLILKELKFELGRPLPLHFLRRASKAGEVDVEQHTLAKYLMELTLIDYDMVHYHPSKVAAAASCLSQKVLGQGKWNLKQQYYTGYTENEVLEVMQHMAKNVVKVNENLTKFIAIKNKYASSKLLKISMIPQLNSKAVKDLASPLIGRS
# UniProt P14635, whole entry, looked up: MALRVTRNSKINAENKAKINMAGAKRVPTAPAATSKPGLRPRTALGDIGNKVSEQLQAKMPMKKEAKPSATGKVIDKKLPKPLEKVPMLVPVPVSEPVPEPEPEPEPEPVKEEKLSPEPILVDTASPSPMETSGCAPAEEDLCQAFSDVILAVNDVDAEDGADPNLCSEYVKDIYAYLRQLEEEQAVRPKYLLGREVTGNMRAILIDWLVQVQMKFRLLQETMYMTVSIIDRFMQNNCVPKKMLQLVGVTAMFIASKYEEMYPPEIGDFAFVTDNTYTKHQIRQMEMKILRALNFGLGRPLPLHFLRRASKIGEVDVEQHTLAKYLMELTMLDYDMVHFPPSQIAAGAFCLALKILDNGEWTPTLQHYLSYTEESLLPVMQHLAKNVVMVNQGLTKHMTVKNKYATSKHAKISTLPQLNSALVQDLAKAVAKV
# UniProt P04040: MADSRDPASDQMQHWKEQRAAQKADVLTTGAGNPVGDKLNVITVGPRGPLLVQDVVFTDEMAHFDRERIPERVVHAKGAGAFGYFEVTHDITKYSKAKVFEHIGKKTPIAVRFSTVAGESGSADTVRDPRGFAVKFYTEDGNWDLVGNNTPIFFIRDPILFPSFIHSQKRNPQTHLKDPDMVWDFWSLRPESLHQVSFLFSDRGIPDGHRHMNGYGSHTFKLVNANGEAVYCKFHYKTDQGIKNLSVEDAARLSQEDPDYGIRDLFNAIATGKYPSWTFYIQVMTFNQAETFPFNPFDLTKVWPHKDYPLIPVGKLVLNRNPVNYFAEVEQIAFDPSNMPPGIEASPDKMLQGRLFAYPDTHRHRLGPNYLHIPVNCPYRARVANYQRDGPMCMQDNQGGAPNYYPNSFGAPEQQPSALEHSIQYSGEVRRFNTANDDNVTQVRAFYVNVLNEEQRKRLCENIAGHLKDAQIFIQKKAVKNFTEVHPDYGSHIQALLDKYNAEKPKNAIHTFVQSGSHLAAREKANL
# UniProt P40227, whole entry, looked up: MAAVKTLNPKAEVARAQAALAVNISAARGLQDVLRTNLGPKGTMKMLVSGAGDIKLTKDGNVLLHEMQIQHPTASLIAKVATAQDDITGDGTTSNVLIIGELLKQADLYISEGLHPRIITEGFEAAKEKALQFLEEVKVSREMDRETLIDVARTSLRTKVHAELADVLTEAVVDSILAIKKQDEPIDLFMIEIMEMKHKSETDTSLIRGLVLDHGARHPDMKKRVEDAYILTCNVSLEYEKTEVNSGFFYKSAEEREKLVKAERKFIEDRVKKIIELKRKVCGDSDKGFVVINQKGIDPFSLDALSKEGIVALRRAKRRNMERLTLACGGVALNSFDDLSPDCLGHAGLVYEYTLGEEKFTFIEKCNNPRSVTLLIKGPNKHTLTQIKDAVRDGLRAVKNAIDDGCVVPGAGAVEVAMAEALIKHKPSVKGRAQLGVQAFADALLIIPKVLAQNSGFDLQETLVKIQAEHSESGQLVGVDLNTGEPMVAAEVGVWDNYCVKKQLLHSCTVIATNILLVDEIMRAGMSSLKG
# UniProt P55211: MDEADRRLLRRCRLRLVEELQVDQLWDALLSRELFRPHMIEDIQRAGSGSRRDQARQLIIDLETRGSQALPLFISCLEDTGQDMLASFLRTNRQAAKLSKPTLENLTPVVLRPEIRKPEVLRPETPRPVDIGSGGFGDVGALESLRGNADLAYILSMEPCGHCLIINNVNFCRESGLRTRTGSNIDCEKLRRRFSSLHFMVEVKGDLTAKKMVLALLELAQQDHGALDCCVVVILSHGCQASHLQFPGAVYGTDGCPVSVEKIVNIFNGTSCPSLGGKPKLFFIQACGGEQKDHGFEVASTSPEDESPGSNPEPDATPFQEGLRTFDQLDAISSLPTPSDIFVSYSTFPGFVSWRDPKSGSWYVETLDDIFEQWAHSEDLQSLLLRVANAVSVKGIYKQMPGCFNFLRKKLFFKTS
# UniProt Q4VC31: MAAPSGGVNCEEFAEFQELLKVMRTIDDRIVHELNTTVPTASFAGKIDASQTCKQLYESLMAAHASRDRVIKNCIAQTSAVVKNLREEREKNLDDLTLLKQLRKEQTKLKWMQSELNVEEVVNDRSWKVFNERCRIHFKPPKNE
# UniProt O75909: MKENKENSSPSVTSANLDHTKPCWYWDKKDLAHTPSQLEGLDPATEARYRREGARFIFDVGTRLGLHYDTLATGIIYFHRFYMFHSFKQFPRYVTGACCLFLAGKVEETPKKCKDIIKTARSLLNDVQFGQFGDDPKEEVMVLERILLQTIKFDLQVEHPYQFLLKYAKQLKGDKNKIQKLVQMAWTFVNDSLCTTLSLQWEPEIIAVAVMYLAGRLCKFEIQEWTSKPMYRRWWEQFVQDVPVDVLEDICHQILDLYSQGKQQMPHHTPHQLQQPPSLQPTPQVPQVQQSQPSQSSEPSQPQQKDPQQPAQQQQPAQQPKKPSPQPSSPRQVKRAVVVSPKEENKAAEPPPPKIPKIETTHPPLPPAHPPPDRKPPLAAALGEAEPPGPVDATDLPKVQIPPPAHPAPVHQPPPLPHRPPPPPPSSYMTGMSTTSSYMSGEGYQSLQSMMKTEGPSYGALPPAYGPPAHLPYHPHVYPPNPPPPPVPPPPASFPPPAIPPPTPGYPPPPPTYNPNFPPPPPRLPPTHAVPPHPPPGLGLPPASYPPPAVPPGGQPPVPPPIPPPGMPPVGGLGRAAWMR
# UniProt Q567U6, whole entry, looked up: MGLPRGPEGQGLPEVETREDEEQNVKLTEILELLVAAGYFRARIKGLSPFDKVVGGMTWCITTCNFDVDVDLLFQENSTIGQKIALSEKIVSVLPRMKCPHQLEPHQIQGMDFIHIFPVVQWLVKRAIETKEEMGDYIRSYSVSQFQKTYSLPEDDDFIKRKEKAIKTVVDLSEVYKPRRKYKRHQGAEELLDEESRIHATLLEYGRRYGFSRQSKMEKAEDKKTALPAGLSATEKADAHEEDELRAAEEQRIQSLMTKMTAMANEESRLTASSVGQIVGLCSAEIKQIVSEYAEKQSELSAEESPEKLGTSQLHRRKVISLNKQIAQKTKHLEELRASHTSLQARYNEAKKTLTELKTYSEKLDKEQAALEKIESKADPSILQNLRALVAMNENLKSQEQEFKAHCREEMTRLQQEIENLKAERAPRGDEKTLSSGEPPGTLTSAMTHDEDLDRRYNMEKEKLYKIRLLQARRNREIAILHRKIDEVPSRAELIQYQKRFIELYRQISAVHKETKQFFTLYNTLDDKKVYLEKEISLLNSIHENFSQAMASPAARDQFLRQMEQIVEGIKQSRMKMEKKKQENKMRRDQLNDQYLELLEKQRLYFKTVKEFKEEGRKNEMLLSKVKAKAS
# UniProt O60826, whole entry, looked up: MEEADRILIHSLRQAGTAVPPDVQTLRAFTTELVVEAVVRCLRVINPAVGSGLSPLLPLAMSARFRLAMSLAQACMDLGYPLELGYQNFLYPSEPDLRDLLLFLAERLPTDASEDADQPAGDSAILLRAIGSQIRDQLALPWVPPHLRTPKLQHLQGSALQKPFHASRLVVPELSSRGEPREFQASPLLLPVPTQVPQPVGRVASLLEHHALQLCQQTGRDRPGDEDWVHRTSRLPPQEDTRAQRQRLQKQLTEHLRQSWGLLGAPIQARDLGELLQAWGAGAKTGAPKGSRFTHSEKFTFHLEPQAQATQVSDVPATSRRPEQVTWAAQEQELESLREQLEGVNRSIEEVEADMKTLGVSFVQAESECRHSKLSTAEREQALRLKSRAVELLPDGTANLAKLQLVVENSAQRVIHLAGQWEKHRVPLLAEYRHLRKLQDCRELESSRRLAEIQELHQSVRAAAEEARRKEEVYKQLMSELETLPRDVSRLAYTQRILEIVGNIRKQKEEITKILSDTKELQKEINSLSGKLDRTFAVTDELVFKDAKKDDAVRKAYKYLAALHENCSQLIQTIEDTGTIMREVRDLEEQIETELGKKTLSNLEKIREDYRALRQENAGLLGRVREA
# UniProt Q5RIA9: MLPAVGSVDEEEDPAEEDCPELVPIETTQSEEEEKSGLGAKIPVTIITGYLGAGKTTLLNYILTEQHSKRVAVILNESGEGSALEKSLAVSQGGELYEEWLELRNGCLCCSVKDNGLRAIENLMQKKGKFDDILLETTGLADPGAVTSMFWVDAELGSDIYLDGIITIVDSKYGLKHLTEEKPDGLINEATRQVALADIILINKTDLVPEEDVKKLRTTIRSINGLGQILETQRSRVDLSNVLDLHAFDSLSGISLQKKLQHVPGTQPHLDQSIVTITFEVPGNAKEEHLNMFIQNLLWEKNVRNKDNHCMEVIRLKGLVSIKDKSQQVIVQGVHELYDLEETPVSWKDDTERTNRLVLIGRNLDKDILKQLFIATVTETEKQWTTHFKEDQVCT
# UniProt Q8IX12: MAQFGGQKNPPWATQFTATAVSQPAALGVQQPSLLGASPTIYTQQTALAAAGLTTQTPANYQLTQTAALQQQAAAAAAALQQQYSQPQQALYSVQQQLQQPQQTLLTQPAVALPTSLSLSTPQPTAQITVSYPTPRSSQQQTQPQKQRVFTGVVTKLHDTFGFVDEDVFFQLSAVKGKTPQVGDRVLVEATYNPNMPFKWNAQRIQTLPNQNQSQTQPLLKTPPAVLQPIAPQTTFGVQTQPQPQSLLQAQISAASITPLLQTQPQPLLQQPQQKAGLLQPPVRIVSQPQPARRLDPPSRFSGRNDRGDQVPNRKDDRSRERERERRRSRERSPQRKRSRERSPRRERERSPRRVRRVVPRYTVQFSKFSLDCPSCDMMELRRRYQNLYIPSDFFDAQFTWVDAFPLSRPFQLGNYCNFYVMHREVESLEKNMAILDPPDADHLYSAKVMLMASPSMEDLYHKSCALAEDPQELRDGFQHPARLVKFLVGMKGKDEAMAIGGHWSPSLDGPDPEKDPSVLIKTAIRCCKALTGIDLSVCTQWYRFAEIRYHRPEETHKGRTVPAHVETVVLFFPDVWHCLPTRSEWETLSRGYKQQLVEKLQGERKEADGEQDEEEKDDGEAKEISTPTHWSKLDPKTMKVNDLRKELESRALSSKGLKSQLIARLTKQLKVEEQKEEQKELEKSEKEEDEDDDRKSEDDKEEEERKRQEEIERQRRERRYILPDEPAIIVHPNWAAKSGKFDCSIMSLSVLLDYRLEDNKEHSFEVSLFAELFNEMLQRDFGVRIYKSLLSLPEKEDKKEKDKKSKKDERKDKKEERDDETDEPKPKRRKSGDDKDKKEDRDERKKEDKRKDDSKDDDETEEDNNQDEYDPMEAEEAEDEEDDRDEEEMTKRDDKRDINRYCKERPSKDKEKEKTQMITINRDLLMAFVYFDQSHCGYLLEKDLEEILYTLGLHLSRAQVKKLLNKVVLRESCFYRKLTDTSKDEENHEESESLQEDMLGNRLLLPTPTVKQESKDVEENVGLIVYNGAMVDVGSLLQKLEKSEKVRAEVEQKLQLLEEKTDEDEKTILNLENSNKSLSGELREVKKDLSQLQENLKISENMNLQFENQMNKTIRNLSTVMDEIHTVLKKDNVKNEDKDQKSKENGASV
# UniProt Q16204: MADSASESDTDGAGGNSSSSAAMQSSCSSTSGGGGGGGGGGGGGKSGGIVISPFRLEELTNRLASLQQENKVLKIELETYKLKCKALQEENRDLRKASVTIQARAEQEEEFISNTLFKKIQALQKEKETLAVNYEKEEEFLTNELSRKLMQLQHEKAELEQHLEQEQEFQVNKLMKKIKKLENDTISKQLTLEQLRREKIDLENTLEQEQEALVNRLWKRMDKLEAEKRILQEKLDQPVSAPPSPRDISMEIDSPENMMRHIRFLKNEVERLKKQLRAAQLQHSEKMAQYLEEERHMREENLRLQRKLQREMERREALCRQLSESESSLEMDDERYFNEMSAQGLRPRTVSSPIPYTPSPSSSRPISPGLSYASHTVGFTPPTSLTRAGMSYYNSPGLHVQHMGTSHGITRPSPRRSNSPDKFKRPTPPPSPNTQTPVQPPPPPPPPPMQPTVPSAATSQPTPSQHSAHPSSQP
# UniProt Q8IWD4: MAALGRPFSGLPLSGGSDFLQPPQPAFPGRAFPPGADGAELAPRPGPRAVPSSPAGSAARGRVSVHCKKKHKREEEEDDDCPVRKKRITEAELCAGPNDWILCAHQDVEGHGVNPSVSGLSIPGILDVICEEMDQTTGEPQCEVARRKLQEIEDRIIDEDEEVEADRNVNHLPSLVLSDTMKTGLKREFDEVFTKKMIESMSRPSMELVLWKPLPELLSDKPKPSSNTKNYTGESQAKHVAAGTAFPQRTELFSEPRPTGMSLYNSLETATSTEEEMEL
# This is one part of the list.
# Compound: NCC(=O)Nc1ccc(-n2nc(C(F)(F)F)cc2-c2ccc3c(ccc4ccccc43)c2)cc1
# Test: log2 fold change, soluble protein after heating vs DMSO (PISA); higher = thermal stabilisation; K562 lysate, 10 uM; active = over 0.2 and 3.5 SD of the protein, either way, in both replicates (recomputed)
# Outline: (§1)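 The values are log-two fold changes in thermal stability compared with solvent controls and come from duplicates. They were obtained by TMTpro 16plex LC-MS/MS, with channel sums equalised, on the supernatant after 21,000xg for 90 min. That supernatant came from crude K562 extract at 1 mg/mL protein treated with 10 μM compound for 30 min, heated for 3 min across 48°C-58°C, pooled and brought to 0.5% NP-40 at 4°C.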
row,Target,log2 fold change
1,CD46 isoform 2 (UniProt P15529),inactive: 0.001
2,CCNB2 (UniProt O95067),inactive: 0.01
3,CBX3 (UniProt Q13185),inactive: 0.069
4,CCT2 (UniProt P78371),inactive: -0.005
5,CASP3 (UniProt P42574),inactive: -0.031
6,CCNB1 (UniProt P14635),inactive: 0.05
7,CAT (UniProt P04040),inactive: 0.02
8,CCT6A (UniProt P40227),inactive: 0.004
9,CASP9 (UniProt P55211),inactive: 0.011
10,CCDC58 (UniProt Q4VC31),inactive: 0.016
11,CD47 (UniProt Q08722),inactive: 0.007
12,CCNK isoform 4 (UniProt O75909),inactive: 0.032
13,CCDC12 (UniProt Q8WUD4),inactive: -0.002
14,CCDC93 (UniProt Q567U6),inactive: 0.024
15,CBX4 (UniProt O00257),inactive: -0.048
16,CCDC25 (UniProt Q86WR0),inactive: 0.025
17,CCDC88A (UniProt Q3V6T2),inactive: -0.002

row,Target,log2 fold change
1,CCDC88C (UniProt Q9P219),inactive: -0.027
2,CCDC22 (UniProt O60826),inactive: 0.056
3,CCDC97 (UniProt Q96F63),inactive: -0.04
4,CCNYL1 (UniProt Q8N7R7),inactive: -0.013
5,CBLB (UniProt Q13191),inactive: -0.07
6,CAVIN1 (UniProt Q6NZI2),inactive: -0.012
7,CBWD5 (UniProt Q5RIA9),inactive: 0.08
8,CARS2 (UniProt Q9HA77),inactive: -0.026
9,CCAR1 (UniProt Q8IX12),inactive: 0.008
10,CCNDBP1 (UniProt O95273),inactive: 0.003
11,CCS (UniProt O14618),inactive: -0.03
12,CD151 (UniProt P48509),inactive: -0.04
13,CCDC6 (UniProt Q16204),inactive: -0.009
14,CCDC117 (UniProt Q8IWD4),inactive: 0.051
15,CCT5 (UniProt P48643),inactive: -0.012
16,CARHSP1 (UniProt Q9Y2V2),inactive: 0.045

# Compound: O=C(CCCCCCC(=O)Nc1ccccc1)NO [vorinostat]
# Test: as above
# Outline: as §1
row,Target,log2 fold change
1,CD46 isoform 2 (UniProt P15529),inactive: 0.011
2,CCNB2 (UniProt O95067),inactive: -0.115
3,CBX3 (UniProt Q13185),inactive: -0.096
4,CCT2 (UniProt P78371),inactive: 0.057
5,CASP3 (UniProt P42574),inactive: 0.058
6,CCNB1 (UniProt P14635),inactive: -0.008
7,CAT (UniProt P04040),inactive: 0.161
8,CCT6A (UniProt P40227),inactive: 0.049
9,CASP9 (UniProt P55211),active: -0.342
10,CCDC58 (UniProt Q4VC31),inactive: 0.104
11,CD47 (UniProt Q08722),inactive: 0.108
12,CCNK isoform 4 (UniProt O75909),inactive: 0.093
13,CCDC12 (UniProt Q8WUD4),inactive: 0.044
14,CCDC93 (UniProt Q567U6),inactive: -0.177
15,CBX4 (UniProt O00257),inactive: 0.134
16,CCDC25 (UniProt Q86WR0),inactive: 0.025
17,CCDC88A (UniProt Q3V6T2),inactive: -0.089

row,Target,log2 fold change
1,CCDC88C (UniProt Q9P219),inactive: 0.025
2,CCDC22 (UniProt O60826),active: -0.222
3,CCDC97 (UniProt Q96F63),inactive: -0.058
4,CCNYL1 (UniProt Q8N7R7),active: -0.674
5,CBLB (UniProt Q13191),inactive: -0.016
6,CAVIN1 (UniProt Q6NZI2),inactive: 0.141
7,CBWD5 (UniProt Q5RIA9),inactive: -0.053
8,CARS2 (UniProt Q9HA77),inactive: 0.034
9,CCAR1 (UniProt Q8IX12),inactive: -0.02
10,CCNDBP1 (UniProt O95273),inactive: -0.002
11,CCS (UniProt O14618),inactive: -0.173
12,CD151 (UniProt P48509),inactive: 0.022
13,CCDC6 (UniProt Q16204),inactive: 0.113
14,CCDC117 (UniProt Q8IWD4),inactive: 0.162
15,CCT5 (UniProt P48643),inactive: 0.002
16,CARHSP1 (UniProt Q9Y2V2),inactive: 0.052

# Compound: O=C(O)c1ccc2c(c1)nc(Nc1cccc(Cl)c1)c1ccncc12 [silmitasertib]
# Test: as above
# Outline: as §1
row,Target,log2 fold change
1,CD46 isoform 2 (UniProt P15529),inactive: -0.054
2,CCNB2 (UniProt O95067),inactive: -0.079
3,CBX3 (UniProt Q13185),inactive: 0.004
4,CCT2 (UniProt P78371),inactive: -0.005
5,CASP3 (UniProt P42574),inactive: -0.02
6,CCNB1 (UniProt P14635),inactive: -0.013
7,CAT (UniProt P04040),inactive: -0.017
8,CCT6A (UniProt P40227),inactive: -0.005
9,CASP9 (UniProt P55211),inactive: -0.004
10,CCDC58 (UniProt Q4VC31),inactive: -0.021
11,CD47 (UniProt Q08722),inactive: -0.036
12,CCNK isoform 4 (UniProt O75909),inactive: -0.007
13,CCDC12 (UniProt Q8WUD4),inactive: -0.04
14,CCDC93 (UniProt Q567U6),inactive: -0.003
15,CBX4 (UniProt O00257),inactive: -0.032
16,CCDC25 (UniProt Q86WR0),inactive: -0.032
17,CCDC88A (UniProt Q3V6T2),inactive: -0.007

row,Target,log2 fold change
1,CCDC88C (UniProt Q9P219),inactive: -0.135
2,CCDC22 (UniProt O60826),inactive: 0.022
3,CCDC97 (UniProt Q96F63),inactive: -0.009
4,CCNYL1 (UniProt Q8N7R7),inactive: 0.079
5,CBLB (UniProt Q13191),inactive: 0.01
6,CAVIN1 (UniProt Q6NZI2),inactive: -0.013
7,CBWD5 (UniProt Q5RIA9),inactive: -0.017
8,CARS2 (UniProt Q9HA77),inactive: 0.015
9,CCAR1 (UniProt Q8IX12),inactive: -0.018
10,CCNDBP1 (UniProt O95273),inactive: 0.014
11,CCS (UniProt O14618),inactive: 0.018
12,CD151 (UniProt P48509),inactive: 0.015
13,CCDC6 (UniProt Q16204),inactive: -0.017
14,CCDC117 (UniProt Q8IWD4),inactive: -0.006
15,CCT5 (UniProt P48643),inactive: 0.007
16,CARHSP1 (UniProt Q9Y2V2),inactive: -0.006
